Among the data in the supplement of paper PMC8426693 are NMR binding call values, retold here.

The list shows a part of the results.

The test system of this test is SARS-CoV-2 5'-UTR RNA. The test can be described thus: NMR binding call after quantification (hit when 2 of 3 NMR criteria are met) (binary (1 = binding, 0 = not binding)); higher = binding. Particulars: RNA concentration 10 µM; fragment concentration 200 µM; 293 K.
`N#Cc1ccc(Cn2cnc3ccccc32)cc1` came in with an NMR binding call of 0.

In turn, `NC(=O)C1CCCn2ccnc21` (stereo unspecified) registered an NMR binding call of 0.

`CCC(NC)c1ccncc1` (stereo unspecified) gave an NMR binding call of 0.

Take `Cc1occc1C(=O)Nc1cc(C(C)(C)C)on1`: the NMR binding call was determined as 0.

Molecule `CC(N)c1ccc(-c2cncnc2)cc1` (stereo unspecified) registered an NMR binding call of 1.

The molecule `Cc1c(Cl)cccc1NC(=O)CN.Cl` gave an NMR binding call of 1.

`CC(N)C(=O)Nc1cc(C(F)(F)F)n[nH]1.Cl` (stereo unspecified): the NMR binding call came out at 0.

`Nc1ncncc1-c1ccc(Cl)cc1` had an NMR binding call of 0.

As for `COC(C)c1nc(-c2cnoc2C)cs1` (stereo unspecified), the NMR binding call is 0.

In turn, `O=C(NCCc1ccncc1)c1ccccc1F` yielded an NMR binding call of 0.

In turn, `Cc1nc2ccccc2n1CCC(N)=O` gave an NMR binding call of 0.

`CN(C)c1ccc(CNn2cnnc2)cc1` displayed an NMR binding call of 0.

Regarding `CC(N)c1nc(Cc2ccccc2)no1.Cl` (stereo unspecified), the NMR binding call worked out at 0.

`COc1ccc(NCc2ccccc2O)cc1` registered an NMR binding call of 0.

Molecule `Nc1nccc(-c2ccc(Cl)cc2)n1` gave an NMR binding call of 1.

For the molecule `CCNc1ccc(C)nn1`, the NMR binding call worked out at 0.

`CC(=O)NCc1ncc[nH]1`: the NMR binding call is 0.

Molecule `c1ccc(SCCN2CCOCC2)cc1` gave an NMR binding call of 0.

In turn, `CC(C)Nc1cccnc1` yielded an NMR binding call of 0.

`FC(F)(F)c1ccc(CN2CCOCC2)cc1` yielded an NMR binding call of 0.

`Cc1n[nH]c(C)c1S(=O)(=O)N(C)C` yielded an NMR binding call of 0.

Consider `Cn1cc(Oc2ncncc2Cl)cn1`, for which the NMR binding call was determined as 0.

As for `Cl.Cl.c1cn(CC2CCCCN2)nn1` (stereo unspecified), the NMR binding call is 0.

In the case of `CN(C)c1ccc(C(=O)Nc2ccncc2)cc1`, the NMR binding call was 0.

Regarding `COC(=O)c1ccccc1NC(=O)N1CCCC1`, the NMR binding call was found to be 0.

As to `O=C(NCCN1CCCC1=O)Nc1ccccc1`, the NMR binding call came to 0.
